Source: PubChem BioAssay AID1053133 (Broad Institute, 2014).

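Vaccinia-infected cells with a two-color viral stage reporter; Venus fluorescence read on a plate reader; the cell line is not named here; timing not stated here. The test concentration is not given here. Percent change in Venus reporter signal; lower (more negative) values mean stronger inhibition of that viral stage.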

Values are in %. How 0% and 100% were set is not given here. Common to all entries: measured here: Venus reporter, other viral stage. Part of the compounds only, not a random draw; the main read-out is not listed here.

structure	activity change (Venus) (%)
C[C@H]1CN([C@@H](C)CO)C(=O)c2cc(NS(=O)(=O)c3ccccc3)ccc2O[C@H]1CN(C)S(=O)(=O)c1cccs1	-27.16
C[C@@H]1CN([C@@H](C)CO)C(=O)c2cc(NC(=O)Nc3ccccc3)ccc2O[C@@H]1CN(C)Cc1ccc(Oc2ccccc2)cc1	-34.25
CC(C)NC(=O)N1Cc2cc(C(=O)NC3CCCCC3)nc(-c3cccc(-c4cccnc4)c3)c2[C@H]1CCO	-44.49
C[C@H]1CN([C@@H](C)CO)S(=O)(=O)c2ccc(-c3ccc(F)cc3)cc2O[C@H]1CN(C)C(=O)c1ccccc1F	-46.54
CC(C)CC#Cc1ccc2c(c1)O[C@H](CN(C)C(=O)Nc1ccccc1)[C@H](C)CN([C@H](C)CO)S2(=O)=O	-44.25
CO[C@@H](CN(C)S(=O)(=O)c1cccc(Cl)c1)[C@H](C)CN([C@@H](C)CO)S(=O)(=O)c1cccc(Cl)c1	-28.15
Cc1ccc(S(=O)(=O)N(C)C[C@@H]2Oc3ncc(-c4cccc(C(F)(F)F)c4)cc3C(=O)N([C@H](C)CO)C[C@@H]2C)cc1	-43.02
COc1ccc(S(=O)(=O)Nc2ccc3c(c2)C(=O)N([C@H](C)CO)C[C@@H](C)[C@H](CN(C)S(=O)(=O)c2cccs2)OCCCC[C@H](C)O3)cc1	-27.68
CN1c2ccc(-c3ccc(F)cc3)cc2[C@H]2[C@H](CCN2C(=O)Nc2cc(F)ccc2F)[C@H]1CO	-71.28
CC(C)C#Cc1ccc2c(c1)O[C@H](CN(C)CC1CCOCC1)[C@@H](C)CN([C@@H](C)CO)S2(=O)=O	-51.56
CCCNC(=O)N1[C@@H](C#N)[C@H](c2ccc(C#Cc3ccc(F)cc3)cc2)[C@@H]1CO	-42.89
C[C@H]1CN([C@@H](C)CO)S(=O)(=O)c2ccc(-c3cccc(F)c3)cc2O[C@H]1CN(C)C(=O)Nc1cc(F)ccc1F	-36.99
O=C(Nc1cc(F)ccc1F)N1CC(=O)N2[C@H](C1)[C@@H](c1ccc(C#CC3CCCC3)cc1)[C@@H]2CO	-33.2
C[C@H](CO)N1C[C@H](C)[C@@H](CN(C)S(=O)(=O)c2ccc(C(F)(F)F)cc2)OCc2ccccc2-c2ccccc2C1=O	-35.29
C[C@@H]1CCCCO[C@H](CN(C)CC2CCCCC2)[C@H](C)CN([C@H](C)CO)C(=O)c2cc(NC(=O)Nc3ccc4c(c3)OCO4)ccc2O1	-55.82
CCCN(C)C[C@H]1Oc2cc(C#Cc3ccc(F)cc3)ccc2S(=O)(=O)N([C@H](C)CO)C[C@H]1C	-33.1
C[C@@H]1CN([C@H](C)CO)C(=O)c2cccc(NC(=O)Nc3ccc(C(F)(F)F)cc3)c2O[C@@H]1CN(C)C(=O)Nc1ccccc1	-46.68
O=S(=O)(c1ccc(F)cc1)N1C[C@@H]2N[C@H](C1)C2c1ccc(-c2ccc(F)cc2)cc1 (some centres undefined)	-58.26
COc1ccc(S(=O)(=O)N2CCCCN3[C@H](C2)[C@H](c2ccc(C#CCC(C)C)cc2)[C@@H]3CO)cc1	-37.74
C[C@@H]1CCCCO[C@@H](CN(C)Cc2ccc(C(F)(F)F)cc2)[C@@H](C)CN([C@@H](C)CO)C(=O)c2cc(NC(=O)CCCN(C)C)ccc2O1	-37.27
C[C@H](CO)N1C[C@H](C)[C@@H](CN(C)S(=O)(=O)c2ccccc2)Oc2cc(Br)ccc2S1(=O)=O	-22.09
C[C@@H]1CCCCO[C@@H](CN(C)Cc2ccc(C(F)(F)F)cc2)[C@H](C)CN([C@H](C)CO)C(=O)c2cc(NC(=O)Cc3ccccc3)ccc2O1	-25.97
COc1cccc(S(=O)(=O)N(C)C[C@H]2OCc3ccccc3-c3ccccc3C(=O)N([C@@H](C)CO)C[C@H]2C)c1	-30.3
C[C@H]1CCCCO[C@@H](CN(C)Cc2ccccc2)[C@@H](C)CN([C@@H](C)CO)C(=O)c2cc(NC(=O)C3CCCCC3)ccc2O1	-34.64
C/C=C/c1ccc2c(c1)O[C@@H](CN(C)Cc1cccc(F)c1)[C@H](C)CN([C@H](C)CO)S2(=O)=O	-43.13
COc1ccccc1CN(C)C[C@H]1OCc2ccccc2-c2c(n(C)c3ccccc23)C(=O)N([C@@H](C)CO)C[C@@H]1C	-55.84
COc1ccc(CN(C)C[C@H]2OCCCC[C@H](C)Oc3ccc(NC(=O)Nc4ccc(C(F)(F)F)cc4)cc3C(=O)N([C@H](C)CO)C[C@@H]2C)cc1	-35.94
COc1cccc(NC(=O)N2CC(=O)N3[C@@H](CO)[C@H](c4ccc(C#CC5CCCC5)cc4)[C@@H]3C2)c1	-25.49
O=C(Nc1cccc(F)c1)N1CC(=O)N2[C@H](CO)[C@@H](c3ccc(-c4ccccc4F)cc3)[C@H]2C1	-35.57
CC(C)COC(=O)N(C)C[C@H]1OCc2ccccc2-c2c(n(C)c3ccccc23)C(=O)N([C@H](C)CO)C[C@@H]1C	-52.75
O=C(Nc1ccc(C(F)(F)F)cc1)Nc1ccc2c(c1)[C@H]1C[C@@H](CC(=O)N3CCc4ccccc4C3)O[C@@H](CO)[C@H]1O2	-25.63
O=C(C1CCOCC1)N1CC(=O)N2[C@H](CO)[C@@H](c3ccc(C#Cc4cccc(F)c4)cc3)[C@@H]2C1	-57.74
O=C(Nc1cc(F)ccc1F)N1CC(=O)N2[C@@H](CO)[C@H](c3ccc(C#CC4CCCCC4)cc3)[C@@H]2C1	-49.59
C[C@H]1CN([C@@H](C)CO)C(=O)c2ccccc2-c2ccccc2CO[C@H]1CN(C)C(=O)Nc1cccc(Cl)c1Cl	-30.11
O=C(C[C@@H]1CC[C@H]2[C@@H](COC[C@@H](O)CN2Cc2ccc(Cl)cc2)O1)NCc1ccccc1Cl	-31.79

4 of the entries, repeated:

* COc1ccccc1CN(C)C[C@H]1OCc2ccccc2-c2c(n(C)c3ccccc23)C(=O)N([C@@H](C)CO)C[C@@H]1C : activity change (Venus) -55.84%
* C[C@H]1CN([C@@H](C)CO)C(=O)c2ccccc2-c2ccccc2CO[C@H]1CN(C)C(=O)Nc1cccc(Cl)c1Cl : activity change (Venus) -30.11%
* CCCN(C)C[C@H]1Oc2cc(C#Cc3ccc(F)cc3)ccc2S(=O)(=O)N([C@H](C)CO)C[C@H]1C : activity change (Venus) -33.1%
* C[C@H](CO)N1C[C@H](C)[C@@H](CN(C)S(=O)(=O)c2ccccc2)Oc2cc(Br)ccc2S1(=O)=O : activity change (Venus) -22.09%